{"sequences": {"note": "The chains behind the UniProt entries cited, without tags or fusion partners. Residues count along the entry.", "UniProt A0A8I3S5A0, 1-617": "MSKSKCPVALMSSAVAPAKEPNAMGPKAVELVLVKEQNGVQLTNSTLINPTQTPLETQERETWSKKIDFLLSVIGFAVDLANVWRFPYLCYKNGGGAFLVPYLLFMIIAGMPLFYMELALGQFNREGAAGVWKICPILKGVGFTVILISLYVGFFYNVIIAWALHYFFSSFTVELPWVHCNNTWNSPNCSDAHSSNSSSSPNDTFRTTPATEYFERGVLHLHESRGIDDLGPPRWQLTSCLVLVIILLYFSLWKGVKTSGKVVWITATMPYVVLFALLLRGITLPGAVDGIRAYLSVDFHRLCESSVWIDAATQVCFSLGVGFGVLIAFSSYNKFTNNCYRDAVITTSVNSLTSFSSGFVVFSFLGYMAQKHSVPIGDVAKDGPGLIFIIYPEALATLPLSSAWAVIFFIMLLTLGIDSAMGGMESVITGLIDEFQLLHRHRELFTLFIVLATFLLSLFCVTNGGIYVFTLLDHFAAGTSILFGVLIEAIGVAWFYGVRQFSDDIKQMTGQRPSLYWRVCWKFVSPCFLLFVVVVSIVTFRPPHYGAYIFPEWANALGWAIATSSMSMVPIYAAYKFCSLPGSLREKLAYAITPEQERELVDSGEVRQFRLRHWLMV"}, "source": "patent US20070199084A1", "about": "“Ubiquitination of Membrane Transporters” (VANDERBILT UNIVERSITY, priority 2005, published 2007)", "origin": "cited, not measured here", "target": "T1, dopamine transporter (Canis lupus familiaris, UniProt A0A8I3S5A0)", "T1 construct": "digitonin-solubilized dopamine transporters from dog caudate nucleus; from tissue; host or cells: dog caudate nucleus, digitonin-solubilized extract", "conditions": "digitonin-solubilized extract of dog caudate; cited from earlier work", "note": "For at least one compound, name, drawing or mass did not settle the structure.", "data": [{"compound": "Fc1ccc(C(OCCN2CCN(CCCc3ccccc3)CC2)c2ccc(F)cc2)cc1", "note": "[GBR 12909]", "values": [{"measurement": "inhibition of soluble [3H]WIN 35,428 binding (competition studies)", "result": "strongly"}]}]}
